± gives the standard deviation of the averaged measurements. Values are relative to the signal before dosing, not to a vehicle control; the signal also falls without drug.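 Fibroblast labels name human fibroblasts: mostly primary ones from tissues such as uterus (C12385, HUF), lung (H6013), bone (Hs27A), adrenal (HADF) and skin (WS1), plus mammary HMF and breast cancer-associated Hs343T. The cancer cells are basal-like or mesenchymal-like triple-negative breast cancer lines. The paper calls a changed response a hit when it shifts by more than 3x the replicate standard deviation. The tissue of the other fibroblasts is not given here.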
Test system: Hs578T
Test: relative JC-1 red fluorescence (viability) vs pre-drug, coculture with fibroblast (fraction); higher = more viable cancer cells
Protocol: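 JC-1 labelled TNBC cells cocultured 1:1 (1,500 cells each) with CellTrace Violet stained primary or stromal fibroblasts in 384-well plates in FluoroBrite medium, treated with one of 42 anticancer drugs at 0.1, 1, 10 or 100 uM. JC-1 red fluorescence (mitochondrial integrity in cancer cells only) was read by plate reader every 8 h for 72 h. Values are normalised to each well's pre-drug value. The stock of one drug was tenfold lower, so its dose labels may be too high.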

CN(C)CCOc1ccc(/C(=C(/CCCl)c2ccccc2)c2ccccc2)cc1 [Toremifene]
relative JC-1 red fluorescence
Conditions | 8 h | 16 h | 24 h | 32 h | 40 h | 48 h | 56 h | 64 h | 72 h
10 µM | 0.967 ± 0.034 | 0.96 ± 0.037 | 0.923 ± 0.02 | 0.9086 ± 0.0024 | 0.8956 ± 0.0038 | 0.8761 ± 0.008 | 0.8711 ± 0.0081 | 0.834 ± 0.021 | 0.824 ± 0.022
100 µM | 0.485 ± 0.04 | 0.38 ± 0.093 | 0.39 ± 0.13 | 0.356 ± 0.13 | 0.312 ± 0.12 | 0.272 ± 0.12 | 0.252 ± 0.12 | 0.213 ± 0.11 | 0.184 ± 0.1

relative JC-1 red fluorescence
Conditions | 8 h | 16 h | 24 h | 32 h | 40 h | 48 h | 56 h | 64 h | 72 h
10 µM, coculture fibroblast: C12385 | 0.864 ± 0.013 | 0.871 ± 0.04 | 0.821 ± 0.063 | 0.867 ± 0.072 | 0.866 ± 0.077 | 0.872 ± 0.086 | 0.875 ± 0.097 | 0.858 ± 0.099 | 0.845 ± 0.11
10 µM, coculture fibroblast: H6013 | 0.9181 ± 0.0023 | 0.969 ± 0.013 | 0.966 ± 0.031 | 0.969 ± 0.025 | 0.966 ± 0.039 | 0.963 ± 0.03 | 0.958 ± 0.035 | 0.96 ± 0.041 | 0.928 ± 0.042
10 µM, coculture fibroblast: H6019 | 0.813 ± 0.03 | 0.911 ± 0.055 | 0.789 ± 0.097 | 0.827 ± 0.059 | 0.8446 ± 0.00013 | 0.85 ± 0.082 | 0.75 ± 0.017 | 0.852 ± 0.18 | 0.809 ± 0.2
10 µM, coculture fibroblast: H6076 | 0.827 ± 0.085 | 0.844 ± 0.073 | 0.785 ± 0.056 | 0.748 ± 0.068 | 0.797 ± 0.075 | 0.769 ± 0.034 | 0.891 ± 0.15 | 0.9663 ± 0.00078 | 0.9384 ± 0.0036
10 µM, coculture fibroblast: H6231 | 0.977 ± 0.031 | 0.908 ± 0.046 | 0.898 ± 0.1 | 0.973 ± 0.035 | 0.949 ± 0.03 | 0.955 ± 0.029 | 0.923 ± 0.033 | 0.91 ± 0.023 | 0.886 ± 0.021
10 µM, coculture fibroblast: HADF | 0.9527 ± 0.0063 | 0.758 ± 0.0037 | 0.781 ± 0.073 | 0.765 ± 0.098 | 0.7836 ± 0.0041 | 0.855 ± 0.085 | 0.785 ± 0.069 | 0.792 ± 0.087 | 0.858 ± 0.058
10 µM, coculture fibroblast: HCFa | 0.931 ± 0.0067 | 0.856 ± 0.061 | 0.801 ± 0.074 | 0.856 ± 0.089 | 0.806 ± 0.042 | 0.878 ± 0.052 | 0.868 ± 0.14 | 0.907 ± 0.046 | 0.932 ± 0.055
10 µM, coculture fibroblast: HCPF | 0.9902 ± 0.0037 | 0.837 ± 0.13 | 0.848 ± 0.085 | 0.773 ± 0.1 | 0.809 ± 0.052 | 0.898 ± 0.048 | 0.729 ± 0.04 | 0.7663 ± 0.004 | 0.858 ± 0.085
10 µM, coculture fibroblast: HHSteC | 0.9328 ± 0.0079 | 0.9437 ± 0.0078 | 0.9636 ± 0.0087 | 0.911 ± 0.056 | 0.9066 ± 0.0053 | 0.903 ± 0.014 | 0.829 ± 0.1 | 0.891 ± 0.016 | 0.911 ± 0.038
10 µM, coculture fibroblast: HMF | 0.968 ± 0.028 | 0.928 ± 0.098 | 0.839 ± 0.11 | 0.847 ± 0.21 | 0.9818 ± 0.0058 | 0.975 ± 0.021 | 0.9487 ± 0.0068 | 0.924 ± 0.012 | 0.902 ± 0.018
10 µM, coculture fibroblast: HPFa | 0.9182 ± 0.0073 | 0.9062 ± 0.0073 | 0.9033 ± 0.0015 | 0.912 ± 0.012 | 0.907 ± 0.02 | 0.901 ± 0.015 | 0.884 ± 0.011 | 0.8778 ± 0.0066 | 0.8416 ± 0.00086
10 µM, coculture fibroblast: HUF | 0.8883 ± 0.0043 | 0.831 ± 0.025 | 0.829 ± 0.025 | 0.7887 ± 0.0048 | 0.751 ± 0.0029 | 0.7204 ± 0.0027 | 0.682 ± 0.0056 | 0.654 ± 0.0088 | 0.629 ± 0.0091
10 µM, coculture fibroblast: Hs27A | 0.9406 ± 0.005 | 0.952 ± 0.021 | 0.898 ± 0.12 | 0.841 ± 0.21 | 0.845 ± 0.19 | 0.913 ± 0.094 | 0.856 ± 0.17 | 0.819 ± 0.14 | 0.898 ± 0.13
10 µM, coculture fibroblast: Hs343T | 0.869 ± 0.18 | 0.915 ± 0.021 | 0.9934 ± 0.0091 | 0.977 ± 0.013 | 0.9358 ± 0.0084 | 0.9388 ± 0.002 | 0.91254 ± 0.00088 | 0.8688 ± 0.0076 | 0.854 ± 0.011
10 µM, coculture fibroblast: WS1 | 0.847 ± 0.029 | 0.873 ± 0.026 | 0.837 ± 0.0065 | 0.87 ± 0.012 | 0.862 ± 0.017 | 0.877 ± 0.017 | 0.879 ± 0.018 | 0.865 ± 0.024 | 0.847 ± 0.015
100 µM, coculture fibroblast: C12385 | 0.421 ± 0.028 | 0.301 ± 0.024 | 0.286 ± 0.036 | 0.21 ± 0.031 | 0.167 ± 0.027 | 0.138 ± 0.025 | 0.115 ± 0.023 | 0.0939 ± 0.024 | 0.0763 ± 0.026
100 µM, coculture fibroblast: H6013 | 0.447 ± 0.071 | 0.336 ± 0.074 | 0.315 ± 0.079 | 0.282 ± 0.083 | 0.242 ± 0.083 | 0.216 ± 0.084 | 0.187 ± 0.081 | 0.167 ± 0.079 | 0.126 ± 0.072
100 µM, coculture fibroblast: H6019 | 0.463 ± 0.044 | 0.348 ± 0.012 | 0.356 ± 0.0057 | 0.282 ± 0.012 | 0.249 ± 0.0079 | 0.23 ± 0.0081 | 0.203 ± 0.0065 | 0.188 ± 0.0035 | 0.167 ± 0.0075
100 µM, coculture fibroblast: H6076 | 0.512 ± 0.015 | 0.436 ± 0.019 | 0.4199 ± 0.0036 | 0.3936 ± 0.00073 | 0.34191 ± 0.00021 | 0.313 ± 0.0043 | 0.27 ± 0.0032 | 0.232 ± 0.0072 | 0.194 ± 0.0066
100 µM, coculture fibroblast: H6231 | 0.562 ± 0.04 | 0.471 ± 0.043 | 0.418 ± 0.024 | 0.39 ± 0.028 | 0.335 ± 0.017 | 0.304 ± 0.028 | 0.263 ± 0.022 | 0.234 ± 0.025 | 0.205 ± 0.022
100 µM, coculture fibroblast: HADF | 0.44 ± 0.023 | 0.312 ± 0.016 | 0.2589 ± 0.00047 | 0.2185 ± 0.0014 | 0.188 ± 0.002 | 0.1588 ± 7.1e-07 | 0.1279 ± 0.0009 | 0.111 ± 0.0014 | 0.0727 ± 0.002
100 µM, coculture fibroblast: HCFa | 0.5743 ± 0.00099 | 0.4403 ± 0.0031 | 0.417 ± 0.0076 | 0.377 ± 0.0077 | 0.3343 ± 0.002 | 0.3071 ± 0.0024 | 0.2732 ± 0.00029 | 0.255 ± 0.0029 | 0.2043 ± 0.00097
100 µM, coculture fibroblast: HCPF | 0.559 ± 0.026 | 0.462 ± 0.031 | 0.397 ± 0.033 | 0.378 ± 0.033 | 0.319 ± 0.037 | 0.296 ± 0.03 | 0.283 ± 0.03 | 0.221 ± 0.026 | 0.192 ± 0.031
100 µM, coculture fibroblast: HHSteC | 0.436 ± 0.06 | 0.339 ± 0.073 | 0.323 ± 0.081 | 0.284 ± 0.087 | 0.254 ± 0.087 | 0.224 ± 0.088 | 0.194 ± 0.082 | 0.172 ± 0.083 | 0.132 ± 0.076
100 µM, coculture fibroblast: HMF | 0.443 ± 0.091 | 0.33 ± 0.089 | 0.319 ± 0.11 | 0.298 ± 0.1 | 0.25 ± 0.1 | 0.222 ± 0.098 | 0.188 ± 0.094 | 0.154 ± 0.084 | 0.127 ± 0.079
100 µM, coculture fibroblast: HPFa | 0.499 ± 0.021 | 0.403 ± 0.031 | 0.365 ± 0.032 | 0.334 ± 0.033 | 0.3 ± 0.037 | 0.271 ± 0.032 | 0.239 ± 0.035 | 0.215 ± 0.026 | 0.174 ± 0.025
100 µM, coculture fibroblast: HUF | 0.511 ± 0.11 | 0.483 ± 0.14 | 0.479 ± 0.13 | 0.392 ± 0.11 | 0.342 ± 0.1 | 0.309 ± 0.1 | 0.272 ± 0.095 | 0.24 ± 0.091 | 0.216 ± 0.087
100 µM, coculture fibroblast: Hs27A | 0.572 ± 0.019 | 0.457 ± 0.027 | 0.397 ± 0.038 | 0.357 ± 0.037 | 0.314 ± 0.032 | 0.302 ± 0.042 | 0.265 ± 0.042 | 0.248 ± 0.042 | 0.197 ± 0.042
100 µM, coculture fibroblast: Hs343T | 0.502 ± 0.021 | 0.389 ± 0.034 | 0.4 ± 0.034 | 0.383 ± 0.044 | 0.335 ± 0.052 | 0.304 ± 0.051 | 0.274 ± 0.059 | 0.234 ± 0.067 | 0.207 ± 0.069
100 µM, coculture fibroblast: WS1 | 0.448 ± 0.018 | 0.365 ± 0.037 | 0.355 ± 0.034 | 0.27 ± 0.029 | 0.223 ± 0.028 | 0.197 ± 0.021 | 0.167 ± 0.028 | 0.147 ± 0.025 | 0.125 ± 0.02
